## Percent effect of library compounds

Sequences of proteins named here, by UniProt entry; tags and fusion partners are left off. Residues count along the entry.
UniProt Q8IDJ8, 1-583: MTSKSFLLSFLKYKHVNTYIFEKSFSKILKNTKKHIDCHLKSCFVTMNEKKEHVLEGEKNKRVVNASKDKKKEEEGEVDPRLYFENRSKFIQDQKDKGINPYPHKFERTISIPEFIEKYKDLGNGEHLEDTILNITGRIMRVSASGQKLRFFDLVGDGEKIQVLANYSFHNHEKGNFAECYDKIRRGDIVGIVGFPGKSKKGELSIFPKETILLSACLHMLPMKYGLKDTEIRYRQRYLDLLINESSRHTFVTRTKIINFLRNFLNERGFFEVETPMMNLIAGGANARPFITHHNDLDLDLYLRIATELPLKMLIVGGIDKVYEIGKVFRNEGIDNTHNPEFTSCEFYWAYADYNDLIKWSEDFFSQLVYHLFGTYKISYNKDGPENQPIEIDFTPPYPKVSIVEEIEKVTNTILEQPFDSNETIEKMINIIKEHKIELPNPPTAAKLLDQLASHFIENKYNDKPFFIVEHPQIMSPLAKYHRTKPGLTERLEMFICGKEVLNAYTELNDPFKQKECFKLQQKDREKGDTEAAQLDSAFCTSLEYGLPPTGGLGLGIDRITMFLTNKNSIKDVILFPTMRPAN
UniProt P9WFT3, whole entry: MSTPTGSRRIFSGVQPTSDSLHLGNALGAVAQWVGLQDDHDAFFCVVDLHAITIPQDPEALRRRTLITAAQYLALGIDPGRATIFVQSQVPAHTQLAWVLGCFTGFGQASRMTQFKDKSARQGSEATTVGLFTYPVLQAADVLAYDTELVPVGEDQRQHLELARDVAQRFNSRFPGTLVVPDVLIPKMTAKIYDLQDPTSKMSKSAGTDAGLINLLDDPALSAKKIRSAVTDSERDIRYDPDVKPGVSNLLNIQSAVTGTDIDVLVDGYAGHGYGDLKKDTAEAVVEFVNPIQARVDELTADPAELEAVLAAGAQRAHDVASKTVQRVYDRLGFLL

From ChEMBL document CHEMBL3988442, “University of Dundee, Small-Polar-MMV Screening Library” (2021).

A: 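Enzyme assay of the cytosolic lysyl-tRNA synthetase in 384-well plates, read by luminescence. Target: Lysine-tRNA ligase, Plasmodium falciparum 3D7 (UniProt Q8IDJ8). Concentration: 30 µM. Direction is inferred from only a few compounds that gave an IC50; most scored high, so higher reads as stronger inhibition. Of about 69,000 compounds tested this way, about 49 (0.071%) reached 50% or more in at least one test.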
B: 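Enzyme assay of tryptophanyl-tRNA synthetase; the read-out is not stated. Target: Tryptophan-tRNA ligase, Mycobacterium tuberculosis (UniProt P9WFT3). Tested at 10 µM. Higher most likely means stronger inhibition; the record gives no direction and few retests gave an IC50. Size under these conditions: about 65,000 compounds, about 64 of them at 50% or above in at least one test.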
C: 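Cell assay of Leishmania donovani living inside macrophages; the read-out is not stated. Concentration: 30 µM. Higher reads as stronger inhibition (inferred: compounds with an IC50 in retests scored well above the rest). Of about 69,000 compounds tested this way, about 1,000 (1.5%) reached 50% or more in at least one test.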

Each number is a percent effect as filed.
How 0% and 100% were set is not recorded. Most values in the screen are low, and negative values occur.
Compounds were drawn at random from those tested, without regard to their results.

{"compound": "Cc1nc2ccn(C(C)C)c(=O)c2cc1C(=O)O", "A": 2.909, "B": 1.891, "C": 22.33}
{"compound": "Cc1ccccc1N1CCCN(CC2(O)CCCNC2)CC1", "stereo": "stereo not given", "A": 7.189, "B": -1.92, "C": 97.82}
{"compound": "CC(C)CN1CCN(C)C2(CCN(Cc3ccsc3)CC2)C1=O", "A": -0.6668, "B": -2.672}
{"compound": "CC(=O)N1CCC(C(=O)NCc2ncc(-c3ccccc3)o2)CC1", "A": 2.837, "B": -0.9104, "C": -9.405}
{"compound": "CC(C(=O)N(C)Cc1ccc(Br)o1)n1cccn1", "stereo": "stereo not given", "A": 0.9517, "B": -4.681, "C": -22.06}
{"compound": "CCOCC1CN(S(=O)(=O)C2CC2)Cc2nn(C)cc21", "stereo": "stereo not given", "A": 7.369, "B": -9.076, "C": 29.96}
{"compound": "CCc1ccc(CN2CCN(c3ncc(Cl)cn3)CC2)nc1", "A": 2.681, "B": 0.2901, "C": -0.1924}
{"compound": "COCC(O)CN1CCC(=O)N(CC=C(C)C)Cc2ccccc21", "stereo": "stereo not given", "A": 4.769, "C": -5.602}
{"compound": "Cc1cc(C)c(C(=O)N(C)CCN(C)C(=O)c2[nH]c(C)cc2C)[nH]1", "A": 6.105, "B": -0.1023, "C": 8.353}
{"compound": "Cc1ccc(C(=O)N2CC[C@@H](N(C)C)[C@@H]2Cc2cnn(C)c2)cn1", "A": 0.8509, "B": -1.876}
{"compound": "CNc1nnc(CCn2nc(C)c(Br)c2C)s1", "A": 0.8003, "B": 2.202, "C": 8.309}
{"compound": "CCC1CN(Cc2nnc(C3CC3)o2)CCN1CCOC", "stereo": "stereo not given", "A": 3.177, "B": -5.908, "C": 34.44}
{"compound": "Cn1cc(N2CC3(COCCN(Cc4nccs4)C3)OCC2=O)cn1", "stereo": "stereo not given", "A": 6.612, "B": -0.5231}
{"compound": "CNC(=O)CS(=O)(=O)C1CCN(S(=O)(=O)c2cccc(C(C)=O)c2)CC1", "A": 3.397, "B": -2.346, "C": 30.9}
{"compound": "CN(C)c1ncccc1C(=O)N1CCCC1Cn1cccn1", "stereo": "stereo not given", "A": -0.04133, "B": -4.117, "C": -8.64}
{"compound": "COC(=O)c1cnc(/C=C/c2ccc(C(=O)O)cc2)s1", "A": 3.774, "B": -7.303, "C": 47.83}
{"compound": "CCN(Cc1ccc2c(c1)OCO2)C(=O)Cn1cccnc1=O", "A": 2.783, "B": -7.569, "C": -12.16}
{"compound": "Cc1nn(C)c(C)c1C1CCCN1C(=O)CCCNc1ncccn1", "stereo": "stereo not given", "A": -0.4841, "B": -4.351, "C": 9.766}
{"compound": "COC(=O)CCn1ccc(=O)c2cc(F)ccc21", "A": 3.352, "B": 1.763, "C": -36.33}
{"compound": "O=C(CC1CCN(c2ncnc3ccccc23)CC1)N1CCCC1", "A": 1.605, "B": -1.068, "C": 9.127}
{"compound": "COCC1CC2(CCN(Cc3ccco3)CC2)CN1C(C)C.O=C(O)C(F)(F)F.O=C(O)C(F)(F)F", "stereo": "stereo not given", "C": 32.16}
{"compound": "Cc1cc(C(C)NCCN2CCC(N(C)C)CC2)c(C)s1", "stereo": "stereo not given", "A": 6, "B": 6.776, "C": 59.42}
{"compound": "CCc1cc(C(F)(F)F)n2nc(C3CCCN3C(=O)COC)cc2n1", "stereo": "stereo not given", "A": 1.608, "B": -6.496, "C": 10.01}
{"compound": "COCCNC(=O)c1ccc2ccc(N3CCN(CC4CC4)CC3)n2c1", "A": 1.104, "B": 14.39, "C": 17.44}
{"compound": "COCC1CC2(CCN(c3ccccn3)CC2)CN1C(C)C", "stereo": "stereo not given", "A": 2.268}
{"compound": "CN(C)CCN1CCN(Cc2cccs2)Cc2cccnc21", "A": 0.926, "B": -4.628}
{"compound": "CC(C)(C)C(=O)CN1CCc2ccccc2NCCC1=O", "A": 3.169, "C": 2.489}
{"compound": "Cc1cnn(CC2CCCN2C(=O)c2cccc(-n3ccc(C)n3)c2)c1", "stereo": "stereo not given", "A": 0.715, "B": -4.172, "C": 15.23}
{"compound": "Cc1nccn1-c1cccc(C2CCCN2S(=O)(=O)N(C)C)n1", "stereo": "stereo not given", "A": 4.023, "B": 4.917, "C": 3.147}
{"compound": "CC(=O)Nc1ccc(CNC(=O)CNCc2snnc2C)cc1", "A": -1.524, "B": 0.2467, "C": 17.42}
{"compound": "c1cncc(-c2noc(CN3CCCC(Cn4cncn4)C3)n2)c1", "stereo": "stereo not given", "A": -1.105, "B": 13.87, "C": 15.47}
{"compound": "CN(C)CCN1CCC2(CCN(C(=O)c3ccc(F)cc3)CC2)C1=O.O=C(O)C(F)(F)F", "C": 17.14}
{"compound": "Cc1cccc(N2CC[C@H]3[C@H]2CCN3C(=O)c2cnn(C)c2)n1", "A": 0.4116, "B": 3.85}
{"compound": "CN(C)C1CCN(C(=O)C2SCCc3ccccc32)CC1", "stereo": "stereo not given", "A": 8.908, "B": -0.8567, "C": 36.39}
{"compound": "CC(C)=CCN1C[C@H]2CC[C@@H]1CN(C(=O)Cn1c(C)cc(C)nc1=O)C2", "A": 1.271, "B": 0.4955}
{"compound": "O=C(NCc1cccnc1OCC(F)(F)F)N1CCOCC1", "A": 4.855, "B": 4.636, "C": 2.906}

Once more, the final 4:

{"compound": "Cc1cccc(N2CC[C@H]3[C@H]2CCN3C(=O)c2cnn(C)c2)n1", "A": 0.4116, "B": 3.85}
{"compound": "CN(C)C1CCN(C(=O)C2SCCc3ccccc32)CC1", "stereo": "stereo not given", "A": 8.908, "B": -0.8567, "C": 36.39}
{"compound": "CC(C)=CCN1C[C@H]2CC[C@@H]1CN(C(=O)Cn1c(C)cc(C)nc1=O)C2", "A": 1.271, "B": 0.4955}
{"compound": "O=C(NCc1cccnc1OCC(F)(F)F)N1CCOCC1", "A": 4.855, "B": 4.636, "C": 2.906}